# These are yes or no findings as the source states them, for the method shown. Some results given as binding are weak or reduced against the parent protein; the word gives no strength.
# The chains behind the UniProt entries cited, without tags or fusion partners. Residues count along the entry.
# UniProt Q27J81, residues 2-1249: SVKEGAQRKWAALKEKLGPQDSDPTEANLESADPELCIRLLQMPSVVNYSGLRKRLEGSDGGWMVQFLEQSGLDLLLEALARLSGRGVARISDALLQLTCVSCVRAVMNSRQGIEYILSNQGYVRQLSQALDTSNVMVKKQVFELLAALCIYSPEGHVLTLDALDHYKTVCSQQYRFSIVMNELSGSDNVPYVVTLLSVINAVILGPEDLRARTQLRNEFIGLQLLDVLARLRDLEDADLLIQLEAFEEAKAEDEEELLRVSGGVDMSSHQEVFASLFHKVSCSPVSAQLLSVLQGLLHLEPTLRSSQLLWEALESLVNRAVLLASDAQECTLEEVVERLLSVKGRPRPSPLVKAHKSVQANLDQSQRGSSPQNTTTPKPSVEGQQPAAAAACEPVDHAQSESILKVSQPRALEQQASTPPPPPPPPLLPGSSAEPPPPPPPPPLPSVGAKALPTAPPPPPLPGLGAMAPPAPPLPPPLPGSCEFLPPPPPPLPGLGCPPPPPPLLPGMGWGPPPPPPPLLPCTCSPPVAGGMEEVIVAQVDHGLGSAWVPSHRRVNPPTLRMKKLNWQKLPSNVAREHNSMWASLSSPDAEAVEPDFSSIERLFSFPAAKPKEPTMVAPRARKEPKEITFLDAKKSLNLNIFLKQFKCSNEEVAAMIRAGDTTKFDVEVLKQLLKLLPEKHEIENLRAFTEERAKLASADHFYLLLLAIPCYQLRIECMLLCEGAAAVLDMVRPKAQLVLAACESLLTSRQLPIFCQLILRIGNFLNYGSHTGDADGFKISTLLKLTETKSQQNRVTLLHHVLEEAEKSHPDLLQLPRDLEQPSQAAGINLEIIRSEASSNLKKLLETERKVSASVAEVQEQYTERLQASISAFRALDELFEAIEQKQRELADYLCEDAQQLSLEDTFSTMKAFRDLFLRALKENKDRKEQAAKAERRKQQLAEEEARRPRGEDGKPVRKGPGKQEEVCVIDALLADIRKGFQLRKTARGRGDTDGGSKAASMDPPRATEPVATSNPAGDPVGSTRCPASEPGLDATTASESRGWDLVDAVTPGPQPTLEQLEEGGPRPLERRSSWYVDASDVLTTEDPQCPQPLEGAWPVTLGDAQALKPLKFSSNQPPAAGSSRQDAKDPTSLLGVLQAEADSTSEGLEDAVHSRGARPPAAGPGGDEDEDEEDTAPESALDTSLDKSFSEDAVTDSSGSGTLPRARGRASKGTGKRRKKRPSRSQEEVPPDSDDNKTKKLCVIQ
# B1: anillin (ANLN), wild-type, endogenous in immortalized human podocytes (protein)
# chain: MDPFTEKLLERTRARRENLQRKMAERPTAAPRSMTHAKRARQPLSEASNQQPLSGGEEKSCTKPSPSKKRCSDNTEVEVSNLENKQPVESTSAKSCSPSPVSPQVQPQAADTISDSVAVPASLLGMRRGLNSRLEATAASSVKTRMQKLAEQRRRWDNDDMTDDIPESSLFSPMPSEEKAASPPRPLLSNASATPVGRRGRLANLAATICSWEDDVNHSFAKQNSVQEQPGTACLSKFSSASGASARINSSSVKQEATFCSQRDGDASLNKALSSSADDASLVNASISSSVKATSPVKSTTSITDAKSCEGQNPELLPKTPISPLKTGVSKPIVKSTLSQTVPSKGELSREICLQSQSKDKSTTPGGTGIKPFLERFGERCQEHSKESPARSTPHRTPIITPNTKAIQERLFKQDTSSSTTHLAQQLKQERQKELACLRGRFDKGNIWSAEKGGNSKSKQLETKQETHCQSTPLKKHQGVSKTQSLPVTEKVTENQIPAKNSSTEPKGFTECEMTKSSPLKITLFLEEDKSLKVTSDPKVEQKIEVIREIEMSVDDDDINSSKVINDLFSDVLEEGELDMEKSQEEMDQALAESSEEQEDALNISSMSLLAPLAQTVGVVSPESLVSTPRLELKDTSRSDESPKPGKFQRTRVPRAESGDSLGSEDRDLLYSIDAYRSQRFKETERPSIKQVIVRKEDVTSKLDEKNNAFPCQVNIKQKMQELNNEINMQQTVIYQASQALNCCVDEEHGKGSLEEAEAERLLLIATGKRTLLIDELNKLKNEGPQRKNKASPQSEFMPSKGSVTLSEIRLPLKADFVCSTVQKPDAANYYYLIILKAGAENMVATPLASTSNSLNGDALTFTTTFTLQDVSNDFEINIEVYSLVQKKDPSGLDKKKKTSKSKAITPKRLLTSITTKSNIHSSVMASPGGLSAVRTSNFALVGSYTLSLSSVGNTKFVLDKVPFLSSLEGHIYLKIKCQVNSSVEERGFLTIFEDVSGFGAWHRRWCVLSGNCISYWTYPDDEKRKNPIGRINLANCTSRQIEPANREFCARRNTFELITVRPQREDDRETLVSQCRDTLCVTKNWLSADTKEERDLWMQKLNQVLVDIRLWQPDACYKPIGKP
# Molecular target: INF2 (human) (UniProt Q27J81)
# Assay: only co-localisation by immunofluorescence in immortalized human podocytes (FIG. 3); no direct binding assay
binder,measurement,value
B1,binding,binds

# From patent US20140106352A1
